Assay results published in publication PMC12058244 (Chemmedchem, 2025).
Square brackets hold non-standard residues; d marks the D form. * marks the point of attachment. Fmoc = O=C(OCC1c2ccccc2-c2ccccc21)*; Boc = CC(C)(C)OC(=O)*; OtBu = CC(C)(C)O*; βAla = NCCC(=O)O; tBu = CC(C)(C)*

Assay: general procedure: Fmoc solid-phase peptide synthesis; Fmoc-Leu-Wang (0.7 mmol/g); Fmoc-TMSAla-2-CTC (0.8 mmol/g); Fmoc-Leu Rink amide (0.4208 mmol/g); Fmoc-Pro-2-CTC (0.68 mm); HATU/DIPEA

| Substance | step yield (coupling step) [%] | step yield (late stage modification step) [%] |
| --- | --- | --- |
| Fmoc-E(OMe)[βAla]K(Boc)K(Boc)PY(tBu)IL-OtBu | 31 | – |
| Fmoc-E[βAla]K(Boc)K(Boc)PY(tBu)IL-OtBu | – | 52 |
